This is one part of the list.

The chains behind the UniProt entries cited, without tags or fusion partners. Where a name states a change or a piece, a line headed by the entry shows the natural chain unless it says otherwise.
UniProt Q96DR8: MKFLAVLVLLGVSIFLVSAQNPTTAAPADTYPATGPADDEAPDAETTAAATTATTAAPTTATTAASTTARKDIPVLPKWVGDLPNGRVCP
UniProt Q9BQG0: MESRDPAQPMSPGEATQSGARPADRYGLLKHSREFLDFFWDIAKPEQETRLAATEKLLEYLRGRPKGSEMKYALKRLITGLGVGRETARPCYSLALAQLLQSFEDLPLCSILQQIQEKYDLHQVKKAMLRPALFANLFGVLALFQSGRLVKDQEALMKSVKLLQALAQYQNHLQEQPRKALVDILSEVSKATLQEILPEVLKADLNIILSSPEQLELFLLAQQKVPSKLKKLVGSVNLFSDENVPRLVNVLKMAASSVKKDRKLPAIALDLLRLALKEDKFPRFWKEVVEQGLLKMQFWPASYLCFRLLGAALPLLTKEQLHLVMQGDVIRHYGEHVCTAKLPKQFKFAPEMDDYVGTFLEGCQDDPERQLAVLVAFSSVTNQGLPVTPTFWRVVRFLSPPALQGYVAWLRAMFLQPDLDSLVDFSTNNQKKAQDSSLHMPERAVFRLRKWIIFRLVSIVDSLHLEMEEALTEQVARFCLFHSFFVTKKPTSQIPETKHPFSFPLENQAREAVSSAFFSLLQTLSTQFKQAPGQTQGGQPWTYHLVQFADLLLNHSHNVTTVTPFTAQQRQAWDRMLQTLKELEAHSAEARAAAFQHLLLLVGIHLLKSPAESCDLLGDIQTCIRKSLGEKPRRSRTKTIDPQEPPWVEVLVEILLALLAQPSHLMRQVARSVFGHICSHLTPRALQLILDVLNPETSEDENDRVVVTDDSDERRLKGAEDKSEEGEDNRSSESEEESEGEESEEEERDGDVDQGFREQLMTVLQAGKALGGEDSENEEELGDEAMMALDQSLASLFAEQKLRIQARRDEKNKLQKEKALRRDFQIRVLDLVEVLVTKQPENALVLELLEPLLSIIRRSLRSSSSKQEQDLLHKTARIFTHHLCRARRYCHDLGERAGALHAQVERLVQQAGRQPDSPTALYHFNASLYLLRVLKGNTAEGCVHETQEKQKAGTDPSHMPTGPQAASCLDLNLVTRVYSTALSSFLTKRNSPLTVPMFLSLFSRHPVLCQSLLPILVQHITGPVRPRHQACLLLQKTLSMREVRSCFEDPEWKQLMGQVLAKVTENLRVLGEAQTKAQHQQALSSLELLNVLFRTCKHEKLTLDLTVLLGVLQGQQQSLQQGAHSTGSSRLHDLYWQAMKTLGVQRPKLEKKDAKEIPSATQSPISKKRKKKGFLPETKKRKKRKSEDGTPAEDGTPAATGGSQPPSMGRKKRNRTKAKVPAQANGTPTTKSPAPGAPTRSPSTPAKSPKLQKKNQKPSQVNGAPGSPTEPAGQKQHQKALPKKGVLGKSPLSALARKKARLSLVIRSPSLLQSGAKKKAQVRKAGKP
UniProt Q9NVV4: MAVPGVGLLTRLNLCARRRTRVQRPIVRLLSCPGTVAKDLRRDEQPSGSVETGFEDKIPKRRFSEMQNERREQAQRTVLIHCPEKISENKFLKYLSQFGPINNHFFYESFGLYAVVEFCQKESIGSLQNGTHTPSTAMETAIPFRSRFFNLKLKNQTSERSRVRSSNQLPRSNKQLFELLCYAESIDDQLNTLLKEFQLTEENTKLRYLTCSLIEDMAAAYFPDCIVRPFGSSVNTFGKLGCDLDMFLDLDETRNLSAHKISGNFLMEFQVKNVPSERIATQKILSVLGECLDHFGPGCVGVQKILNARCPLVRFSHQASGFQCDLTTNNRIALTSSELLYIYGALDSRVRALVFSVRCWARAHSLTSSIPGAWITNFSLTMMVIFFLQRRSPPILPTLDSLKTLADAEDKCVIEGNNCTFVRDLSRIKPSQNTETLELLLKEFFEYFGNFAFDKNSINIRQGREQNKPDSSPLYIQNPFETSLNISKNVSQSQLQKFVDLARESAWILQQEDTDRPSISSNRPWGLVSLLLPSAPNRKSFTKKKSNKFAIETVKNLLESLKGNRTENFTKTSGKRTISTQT
UniProt Q9UDX5: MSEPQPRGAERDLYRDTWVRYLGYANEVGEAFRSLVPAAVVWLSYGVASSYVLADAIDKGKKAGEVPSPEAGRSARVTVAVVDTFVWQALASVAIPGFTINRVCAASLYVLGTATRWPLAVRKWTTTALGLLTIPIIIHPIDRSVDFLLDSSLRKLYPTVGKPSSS
UniProt Q14764, whole entry, looked up: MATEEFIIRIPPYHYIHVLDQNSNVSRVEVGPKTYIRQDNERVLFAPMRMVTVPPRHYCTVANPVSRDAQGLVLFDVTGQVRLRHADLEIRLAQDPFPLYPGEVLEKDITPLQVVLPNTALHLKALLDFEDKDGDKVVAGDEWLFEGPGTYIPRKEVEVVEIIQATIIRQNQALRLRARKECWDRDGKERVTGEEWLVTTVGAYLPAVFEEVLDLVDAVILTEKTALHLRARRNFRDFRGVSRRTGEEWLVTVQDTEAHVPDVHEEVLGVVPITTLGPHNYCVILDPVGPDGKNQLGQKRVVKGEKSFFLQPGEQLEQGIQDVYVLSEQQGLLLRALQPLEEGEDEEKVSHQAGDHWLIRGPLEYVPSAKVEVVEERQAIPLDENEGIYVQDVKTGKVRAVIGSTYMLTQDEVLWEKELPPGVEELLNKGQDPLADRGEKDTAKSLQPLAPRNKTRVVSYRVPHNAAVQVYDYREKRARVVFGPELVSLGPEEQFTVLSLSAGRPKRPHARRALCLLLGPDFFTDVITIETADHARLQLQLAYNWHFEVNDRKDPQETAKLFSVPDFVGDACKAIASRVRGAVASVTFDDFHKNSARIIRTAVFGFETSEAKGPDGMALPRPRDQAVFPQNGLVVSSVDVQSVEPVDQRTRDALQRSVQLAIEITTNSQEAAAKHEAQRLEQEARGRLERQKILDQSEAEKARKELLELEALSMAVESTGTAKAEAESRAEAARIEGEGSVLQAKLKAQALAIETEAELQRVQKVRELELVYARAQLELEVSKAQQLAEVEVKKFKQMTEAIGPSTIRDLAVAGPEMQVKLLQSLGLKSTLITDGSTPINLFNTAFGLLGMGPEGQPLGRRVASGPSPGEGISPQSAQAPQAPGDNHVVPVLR
UniProt Q6UB35, whole entry, looked up: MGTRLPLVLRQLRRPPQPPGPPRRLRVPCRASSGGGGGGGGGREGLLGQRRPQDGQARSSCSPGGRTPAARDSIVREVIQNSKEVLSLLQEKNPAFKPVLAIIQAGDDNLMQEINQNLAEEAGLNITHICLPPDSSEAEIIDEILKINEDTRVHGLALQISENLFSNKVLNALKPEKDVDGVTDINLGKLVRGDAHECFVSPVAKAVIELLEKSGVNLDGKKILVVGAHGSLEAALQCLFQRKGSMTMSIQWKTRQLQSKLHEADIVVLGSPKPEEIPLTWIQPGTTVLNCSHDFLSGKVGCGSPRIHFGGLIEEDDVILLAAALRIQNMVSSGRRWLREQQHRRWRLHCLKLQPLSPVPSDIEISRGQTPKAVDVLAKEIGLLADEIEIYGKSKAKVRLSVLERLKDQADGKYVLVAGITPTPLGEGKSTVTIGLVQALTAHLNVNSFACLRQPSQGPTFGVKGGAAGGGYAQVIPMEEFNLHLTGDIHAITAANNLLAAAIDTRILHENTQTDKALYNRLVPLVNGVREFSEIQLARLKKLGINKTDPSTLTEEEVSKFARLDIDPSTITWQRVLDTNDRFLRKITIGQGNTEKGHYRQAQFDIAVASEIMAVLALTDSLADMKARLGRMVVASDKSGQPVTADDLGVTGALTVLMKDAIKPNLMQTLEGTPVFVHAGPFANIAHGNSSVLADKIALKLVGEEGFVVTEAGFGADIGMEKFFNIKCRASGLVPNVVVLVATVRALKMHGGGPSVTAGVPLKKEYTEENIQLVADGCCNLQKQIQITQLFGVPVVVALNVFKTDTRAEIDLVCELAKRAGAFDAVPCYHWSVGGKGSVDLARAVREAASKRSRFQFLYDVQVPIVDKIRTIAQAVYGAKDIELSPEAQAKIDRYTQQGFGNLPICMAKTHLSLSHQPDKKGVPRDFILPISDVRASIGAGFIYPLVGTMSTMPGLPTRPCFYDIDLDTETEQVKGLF
UniProt Q99417: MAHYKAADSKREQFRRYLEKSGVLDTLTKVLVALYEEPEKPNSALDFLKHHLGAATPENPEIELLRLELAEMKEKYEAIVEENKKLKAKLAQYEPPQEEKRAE
UniProt Q9Y6C9: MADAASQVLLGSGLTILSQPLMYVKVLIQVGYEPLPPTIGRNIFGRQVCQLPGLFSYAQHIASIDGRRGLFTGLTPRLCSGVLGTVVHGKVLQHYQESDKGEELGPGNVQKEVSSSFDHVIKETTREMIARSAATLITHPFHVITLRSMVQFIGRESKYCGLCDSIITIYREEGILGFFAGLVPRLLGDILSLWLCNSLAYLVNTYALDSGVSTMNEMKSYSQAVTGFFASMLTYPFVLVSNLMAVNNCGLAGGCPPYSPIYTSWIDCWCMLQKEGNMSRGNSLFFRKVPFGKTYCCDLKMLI
UniProt O00159, whole entry, looked up: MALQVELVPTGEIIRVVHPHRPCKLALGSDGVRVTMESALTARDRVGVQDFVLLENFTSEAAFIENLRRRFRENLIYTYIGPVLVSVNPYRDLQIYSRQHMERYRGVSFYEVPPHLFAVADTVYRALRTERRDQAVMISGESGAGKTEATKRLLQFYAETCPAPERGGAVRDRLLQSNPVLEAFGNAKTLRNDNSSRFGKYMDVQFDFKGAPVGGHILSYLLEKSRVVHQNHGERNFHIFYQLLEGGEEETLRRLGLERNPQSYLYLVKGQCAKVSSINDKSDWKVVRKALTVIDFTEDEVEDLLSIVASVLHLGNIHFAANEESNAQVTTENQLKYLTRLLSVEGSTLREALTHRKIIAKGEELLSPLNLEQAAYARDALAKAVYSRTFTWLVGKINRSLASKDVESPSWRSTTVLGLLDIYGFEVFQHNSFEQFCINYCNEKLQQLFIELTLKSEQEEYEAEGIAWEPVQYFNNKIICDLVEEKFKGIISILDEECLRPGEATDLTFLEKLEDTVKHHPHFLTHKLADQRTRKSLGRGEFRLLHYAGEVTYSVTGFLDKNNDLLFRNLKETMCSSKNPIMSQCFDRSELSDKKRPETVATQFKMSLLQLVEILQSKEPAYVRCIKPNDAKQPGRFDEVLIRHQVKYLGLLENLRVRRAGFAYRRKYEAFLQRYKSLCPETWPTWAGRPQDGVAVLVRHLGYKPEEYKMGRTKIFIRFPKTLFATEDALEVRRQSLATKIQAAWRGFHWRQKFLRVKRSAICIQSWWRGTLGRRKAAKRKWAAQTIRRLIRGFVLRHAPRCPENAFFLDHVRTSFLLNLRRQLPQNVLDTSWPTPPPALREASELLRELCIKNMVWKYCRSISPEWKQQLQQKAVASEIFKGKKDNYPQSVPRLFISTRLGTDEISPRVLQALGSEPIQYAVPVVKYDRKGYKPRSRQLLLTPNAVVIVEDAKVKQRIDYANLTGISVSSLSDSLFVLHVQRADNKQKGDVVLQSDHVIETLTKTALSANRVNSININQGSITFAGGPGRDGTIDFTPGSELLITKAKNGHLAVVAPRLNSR
UniProt P82909: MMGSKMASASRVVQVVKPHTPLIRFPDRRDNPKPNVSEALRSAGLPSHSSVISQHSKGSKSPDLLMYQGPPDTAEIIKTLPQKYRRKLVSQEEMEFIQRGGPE
UniProt Q9Y3D2: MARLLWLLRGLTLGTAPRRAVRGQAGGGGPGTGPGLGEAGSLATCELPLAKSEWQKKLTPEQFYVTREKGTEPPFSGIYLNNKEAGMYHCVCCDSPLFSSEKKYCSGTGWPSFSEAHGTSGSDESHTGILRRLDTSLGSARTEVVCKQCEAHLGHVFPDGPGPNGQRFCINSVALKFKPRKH
UniProt P53602: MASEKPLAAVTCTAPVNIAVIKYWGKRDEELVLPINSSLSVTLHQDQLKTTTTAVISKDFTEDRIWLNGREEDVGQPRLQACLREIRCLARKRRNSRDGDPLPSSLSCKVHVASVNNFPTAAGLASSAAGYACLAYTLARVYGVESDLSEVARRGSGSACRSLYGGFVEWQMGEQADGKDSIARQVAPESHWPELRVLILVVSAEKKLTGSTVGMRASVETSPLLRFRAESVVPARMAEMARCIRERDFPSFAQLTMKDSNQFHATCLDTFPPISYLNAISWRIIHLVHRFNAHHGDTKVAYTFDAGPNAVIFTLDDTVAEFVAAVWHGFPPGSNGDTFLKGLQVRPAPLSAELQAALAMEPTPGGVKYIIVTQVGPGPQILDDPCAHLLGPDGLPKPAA
UniProt Q9NZJ7, whole entry, looked up: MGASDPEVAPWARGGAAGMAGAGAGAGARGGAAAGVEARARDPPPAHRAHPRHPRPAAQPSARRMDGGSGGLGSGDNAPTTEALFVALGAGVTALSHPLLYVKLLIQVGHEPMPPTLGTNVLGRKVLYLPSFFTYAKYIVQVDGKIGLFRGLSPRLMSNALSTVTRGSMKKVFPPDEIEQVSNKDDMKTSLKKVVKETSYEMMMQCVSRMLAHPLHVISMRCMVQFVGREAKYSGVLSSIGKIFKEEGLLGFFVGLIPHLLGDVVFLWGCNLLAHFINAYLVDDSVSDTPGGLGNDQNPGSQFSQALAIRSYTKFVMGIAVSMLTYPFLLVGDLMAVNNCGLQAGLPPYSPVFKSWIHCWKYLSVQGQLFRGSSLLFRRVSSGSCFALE

Compound in the assay: c1cn2cc(-c3ccc4cn[nH]c4c3)nc(Nc3ccc(N4CCOCC4)cc3)c2n1 [entospletinib]
The experiment in a line: log2 fold change, soluble protein after heating vs DMSO (PISA); higher = thermal stabilisation; K562 cells, 10 uM, 30 min; active = over 0.2 and 3.5 SD of the protein, either way, in both replicates (recomputed). In short, it runs like this:
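K562 cells (2×10^6 cells/mL) were treated with 10 μM compound for 30 min, and aliquots were heated for 3 min over 48°C-58°C. Pooled aliquots were extracted in PBS with 0.5% NP-40 at 4°C, and the supernatant after 21,000xg for 90 min was measured by TMTpro 16plex LC-MS/MS with channel sums equalised. Reported thermal stability, relative to control samples and from duplicates, is a log2 fold change.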
Regarding MTMR3 (UniProt Q13615), the log2 fold change is inactive: 0.004.

As for MUCL1 (UniProt Q96DR8), the log2 fold change was inactive: 0.094.

With MYBBP1A isoform 2 (UniProt Q9BQG0), the log2 fold change is inactive: -0.056.

Consider MRS2 (UniProt Q9HD23), for which the log2 fold change was inactive: -0.018.

Turning to MYADM (UniProt Q96S97), the log2 fold change is inactive: -0.194.

Take MTPAP (UniProt Q9NVV4): the log2 fold change is inactive: 0.046.

Consider MTFP1 (UniProt Q9UDX5), for which the log2 fold change is inactive: 0.007.

For MT-CYB (UniProt P00156), the log2 fold change was inactive: 0.034.

Consider MVP (UniProt Q14764), for which the log2 fold change was inactive: 0.913.

With MYO18A (UniProt Q92614), the log2 fold change was inactive: -0.108.

Take MYO1D (UniProt O94832): the log2 fold change is inactive: -0.024.

On to MTHFD1L (UniProt Q6UB35), for which the log2 fold change is inactive: 0.007.

As for MYH4 (UniProt Q9Y623), the log2 fold change was inactive: 0.895.

In the case of MYCBP (UniProt Q99417), the log2 fold change was inactive: -0.021.

MTCH2 (UniProt Q9Y6C9): the log2 fold change was inactive: 0.042.

Turning to MYH9 (UniProt P35579), the log2 fold change was inactive: -0.083.

For MTA3 (UniProt Q9BTC8), the log2 fold change was inactive: 0.021.

With MYO1C (UniProt O00159), the log2 fold change is inactive: 0.061.

Regarding MT-ND5 (UniProt P03915), the log2 fold change was inactive: -0.002.

Turning to MRPS30 (UniProt Q9NP92), the log2 fold change was inactive: -0.085.

With MT-CO2 (UniProt P00403), the log2 fold change was inactive: 0.002.

Turning to MRPS36 (UniProt P82909), the log2 fold change is inactive: 0.041.

As for MSRB2 (UniProt Q9Y3D2), the log2 fold change was inactive: -0.022.

In the case of MRTO4 (UniProt Q9UKD2), the log2 fold change is inactive: -0.009.

As to MVD (UniProt P53602), the log2 fold change is inactive: -0.01.

As to MT-CO1 (UniProt P00395), the log2 fold change is inactive: 0.073.

As to MTCH1 (UniProt Q9NZJ7), the log2 fold change was inactive: -0.008.

In the case of MTRES1 (UniProt Q9P0P8), the log2 fold change is inactive: 0.03.

MRPS23 (UniProt Q9Y3D9): the log2 fold change is inactive: 0.091.

MRTFB isoform 5 (UniProt Q9ULH7): the log2 fold change was inactive: -0.031.

The values above are taken from the supplement of paper PMC10849652.
